Source: PubChem BioAssay AID493014 (National Center for Advancing Translational Sciences (NCATS), 2011)
Among all 340,000 compounds or so, about 170 (0.05%) were called active. Inconclusive results, whose numbers are uncertain, are shown with a selection of clear calls. The call rests on the fitted dose curve; in most records, active means well fitted inhibition curve with a large enough effect in the signal ratio, with a control signal flat (not every such curve was filed as active); inconclusive means small, poorly fitted or top-dose-only effect, or effect the other way, or a change in a side signal; inactive means flat fitted curve, though single readings scatter; the % refers to the signal ratio. Where the call is inconclusive, the potency comes from a doubtful curve fit.

Experiment: qHTS Assay to Find Inhibitors of Chronic Active B-Cell Receptor Signaling;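 on activity change, negative = inhibition: plate controls were basal doxycycline-induced cells for no effect and cells given 10 µM MG132 for full effect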
Conditions: ABC-DLBCL IkBa-CBG/CBR reporter, luminescence ratio (green luciferase fused to IkBa over red control in TMD8 lymphoma cells), 4 h; activity change, negative = inhibition: at 46.1 µM (top of the series)
In short: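 Doxycycline induced both beetle luciferases in TMD8 lymphoma cells; IKK-driven degradation limits the IkappaBalpha-fused green signal, while red luminescence normalises for cell number and nonspecific effects. Compounds tested up to 46 uM, 4 hrs.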
Potency means the concentration at half of the fitted maximal effect.

SMILES	activity change, negative = inhibition	Potency
CCOc1ccccc1N1CCN(C(=O)c2ccc3[nH]c(C)c(C)c3c2)CC1	inconclusive: -3.39%	–
O=C(NCc1cccc(OC(F)(F)F)c1)C1CCC(=O)N(Cc2cccc(F)c2)C1 (configuration not stated)	inactive: -1.46%	–
Cc1ccccc1Nc1nc(N)nc(CSCc2c(C)noc2C)n1	inconclusive: -9.79%	–
Nc1nnc(SCCOc2ccc(Br)cc2)s1	inconclusive: 13.9%	–
CCOC(=O)C1=C(CSc2nccn2C)NC(=O)NC1c1ccc(OC)cc1 (configuration not stated)	inconclusive: 4.17%	–
CC1(C)Oc2ccc3ccc(=O)oc3c2/C(=C/Nc2ccccc2)C1=O	inactive: -10.5%	–
O=C(/C=C/c1ccc(O)cc1)c1ccc(O)cc1O	–	inconclusive: 10.3 µM [cytotoxic, partial curve]
Cc1ccc(/C=N/NC(=O)c2cccs2)o1	inconclusive: -9.61%	–
Cc1nnc(SCc2ccccc2Cl)n(N)c1=O	inconclusive: -0.294%	–
CCOCCCNC(=O)C1(O)c2cc(Br)ccc2NC(=O)N1c1cccc(OC)c1 (configuration not stated)	inconclusive: 6.29%	–
Cc1ccnc2nc(C(=O)Nc3nc4ccccc4s3)nn12	–	inconclusive: 11.2 µM [falling, partial curve]
Cc1nn(-c2ccccc2)nc1C(=O)Nc1ccc2c(c1)OCCO2	inconclusive: -4.75%	–
CCOc1cc(/C=C2\CCCC(C(=O)C(F)(F)F)=C2O)ccc1O	–	inconclusive: 20.6 µM [falling, single point]
CC(C)CCNC(=O)c1nnc(Cc2ccc(Cl)cc2)o1	–	inconclusive: 11.6 µM [rising, partial curve, poor fit]
Cc1ccc(NC(=O)c2ccncc2)cc1[N+](=O)[O-]	inactive: -10.9%	–
NCCCC[C@H]1CN=C(N)N1CCC12CC3CC(CC(C3)C1)C2	inactive: -0.734%	–
O=c1ccc(NS(=O)(=O)c2ccc(Cl)cc2)cn1Cc1ccc(Cl)c(Cl)c1	inconclusive: -6.99%	–
COC(=O)CC(c1ccccc1F)N1Cc2ccccc2C1=O (configuration not stated)	inconclusive: 0.315%	–
Cc1cccc(CCNC(=O)C2CCN(S(=O)(=O)c3cccc4cccnc34)CC2)c1	inconclusive: 2.13%	–
CN(C(=O)c1ccc(Br)o1)C1CCCCC1	inconclusive: 0.492%	–
Cc1ccc(-n2nc(C)c3c(C)c(CCC(=O)Nc4ccc(CN5CCCC5)cc4)c(C)nc32)cc1	inactive: -0.589%	–

SMILES	activity change, negative = inhibition	Potency
CCC(=O)N1CC2(CC(c3cccc(NC(=O)CC(c4ccccc4)c4ccccc4)c3)=NO2)C[C@H]1C(N)=O (some centres not stated)	inconclusive: 0.3%	–
Cc1ccc2nc(SCC(=O)c3ccc4c(c3)NC(=O)CO4)[nH]c2c1	inactive: -18.2%	–
COc1cccc(Oc2ccc(N)cn2)c1	inconclusive: 8.59%	–
CCOC(=O)c1cc(CC)sc1NC(=O)c1cccc(N2C(=O)CCC2=O)c1	inconclusive: 20.1%	–
COc1cc2c(cc1OC)CN(C(=O)C1(c3ccccc3)CC1)CC2	inconclusive: 3.9%	–
O=C(NCc1cccs1)C1CCN(c2ccc(S(=O)(=O)N3CCOCC3)cc2Cl)CC1	–	inconclusive: 8.91 µM [falling, partial curve]
CC(C)[C@H](NC(=O)c1ccccc1F)C(=O)OCC(=O)NC(=O)NC1CCCCC1	inconclusive: 4.91%	–
CCN(CC)CCNC(=O)C12CC3CC(CC(C3)C1)C2	inactive: -14.9%	–
CCCCN(Cc1cc2cc(OC)ccc2[nH]c1=O)C(=O)c1ccco1	inactive: -12%	–
COc1ccccc1-c1cc(C(=O)Nc2sc3c(c2C#N)CCC(C)C3)c2ccccc2n1 (configuration not stated)	inactive: -6.58%	–
CCOc1cccc(C(=O)N/N=C/c2coc3ccccc3c2=O)c1	inconclusive: -14.4%	–
CC(=C/C(=O)O)/C(=C/c1ccccc1)C(=O)O	–	inconclusive: 5.8 µM [rising, full curve]
S=C(Nc1ccc(Oc2ccccc2)cc1)N1CCN(c2ccccn2)CC1	inconclusive: 3.31%	–
COc1ccccc1C(=O)NC(=S)Nc1ccccc1N1CCCC1	inactive: 2.12%	–
CC(C)N1CCN(Cc2ccsc2)CC1CCO (configuration not stated)	–	inconclusive: 35.5 µM [falling, single point]
COCc1nc2ccccc2n1Cc1cccc(C)c1	inactive: -7.4%	–
Cc1ccc(C)c(S(=O)(=O)N2CCN(C(=O)C3CCN(c4ncnc5sc(C)c(C)c45)CC3)CC2)c1	inconclusive: -15.1%	–
CCOc1cc2[nH]c(=S)n(C(C)C)c(=O)c2cc1OCC	–	inconclusive: 0.231 µM [rising, full curve, poor fit]
O=C(CSc1ncnc2c1nnn2Cc1ccc(F)cc1)NCC1CCCO1 (configuration not stated)	–	inconclusive: 3.55 µM [falling, partial curve, poor fit]
CCc1cc(=O)oc2c3c(cc(OCC(=O)NCCN4CCOCC4)c12)OC(C)(C)CC3	inactive: 2.54%	–
COc1cc(-c2nc3oc4ccccc4c(=O)c3c(=O)n2Cc2ccco2)cc(OC)c1OC	–	inconclusive: 10 µM [falling, partial curve]

SMILES	activity change, negative = inhibition	Potency
CC(C)N1CC(C(=O)O)CC1=O (configuration not stated)	–	inconclusive: 0.517 µM [falling, partial curve, poor fit]
CC1(C)CC(=O)c2cnc(N3CCN(c4ccccc4)CC3)nc2C1	inconclusive: 0.699%	–
CCCCn1c(SCC(=O)Nc2cc(C)[nH]n2)nc2ccsc2c1=O	inactive: -2.08%	–
O=C(NCC(c1cccnc1)N1CCN(c2ccc(F)cc2)CC1)C1CCCCC1 (configuration not stated)	inactive: -27.1%	–
O=C(Cn1cnc2c(cnn2-c2ccccc2)c1=O)Nc1ccc(S(=O)(=O)N2CCOCC2)cc1	inconclusive: 6.88%	–
CC(C)CCNC(=O)CNC(=S)N(Cc1ccccc1)Cc1cccnc1	inactive: -5.79%	–
COCCn1c(-c2cccc([N+](=O)[O-])c2)nc2c1c(=O)[nH]c(=O)n2Cc1ccccc1	inconclusive: -8.38%	–
O=C(CSc1ccc2nnc(-c3ccc(Cl)cc3)n2n1)N1CCCc2ccccc21	inconclusive: 12.7%	–
CCSc1nnc(NC(=O)c2cc3c(s2)CCCC3)s1	inconclusive: 4.9%	–
COc1cccc2c1C(=O)c1c(O)c3c(c(O)c1C2=O)C[C@@](O)(C(C)=O)C[C@@H]3O[C@H]1C[C@H](N)[C@H](O)[C@H](C)O1	inconclusive: 17.7%	–
CCN(CC)CCN(C(=O)c1ccc2c(c1)CCCC2)c1nc2ccc(C)cc2s1	inactive: 6.39%	–
Cn1c2ccccc2c2c(C(=O)NCc3ccco3)cn(C3CCCCC3)c(=O)c21	inconclusive: -9.87%	–
C[C@H](NC(=O)c1nc[nH]c1C(=O)NCCCCCNC(=O)OC(C)(C)C)C(=O)OCc1ccccc1	–	inconclusive: 35.5 µM [falling, single point]
CCC(=O)Nc1ccc(/C=C(\C(C)=O)C(=O)c2ccccc2)cc1	–	inconclusive: 17.8 µM [falling, single point]
O=C(c1cccs1)N1CCC(c2ccccc2)C1 (configuration not stated)	–	inconclusive: 16.4 µM [falling, single point]
CCOc1ccc(-c2cnc(SCC(N)=O)nc2N)cc1	inconclusive: -0.185%	–
O=C(O)c1ccc(-c2ccc(/C=C3\NC(=O)N(Cc4ccc(Cl)cc4)C3=O)o2)cc1	–	inconclusive: 17.8 µM [falling, partial curve]
CNC(=O)c1cc(Oc2ccc(NC(=O)Nc3ccc(Cl)c(C(F)(F)F)c3)cc2)ccn1	inconclusive: 18%	–
CC(C)(C)NC(=O)CSc1nc(O)cc(=O)[nH]1	inconclusive: 5.85%	–
O=C(NC1CCN(C(=O)Nc2cccc(Cl)c2)CC1)C1CCCCC1	inconclusive: 9.46%	–
FC(F)(F)c1nc2ccccc2nc1N/N=C\c1ccccc1	inconclusive: -10.9%	–

Already shown: an excerpt of the list.
SMILES	activity change, negative = inhibition	Potency
CC1(C)CC(=O)c2cnc(N3CCN(c4ccccc4)CC3)nc2C1	inconclusive: 0.699%	–
CCCCn1c(SCC(=O)Nc2cc(C)[nH]n2)nc2ccsc2c1=O	inactive: -2.08%	–
O=C(NCC(c1cccnc1)N1CCN(c2ccc(F)cc2)CC1)C1CCCCC1 (configuration not stated)	inactive: -27.1%	–
O=C(Cn1cnc2c(cnn2-c2ccccc2)c1=O)Nc1ccc(S(=O)(=O)N2CCOCC2)cc1	inconclusive: 6.88%	–
CC(C)CCNC(=O)CNC(=S)N(Cc1ccccc1)Cc1cccnc1	inactive: -5.79%	–
COCCn1c(-c2cccc([N+](=O)[O-])c2)nc2c1c(=O)[nH]c(=O)n2Cc1ccccc1	inconclusive: -8.38%	–
O=C(CSc1ccc2nnc(-c3ccc(Cl)cc3)n2n1)N1CCCc2ccccc21	inconclusive: 12.7%	–
CCSc1nnc(NC(=O)c2cc3c(s2)CCCC3)s1	inconclusive: 4.9%	–
COc1cccc2c1C(=O)c1c(O)c3c(c(O)c1C2=O)C[C@@](O)(C(C)=O)C[C@@H]3O[C@H]1C[C@H](N)[C@H](O)[C@H](C)O1	inconclusive: 17.7%	–
CCN(CC)CCN(C(=O)c1ccc2c(c1)CCCC2)c1nc2ccc(C)cc2s1	inactive: 6.39%	–
Cn1c2ccccc2c2c(C(=O)NCc3ccco3)cn(C3CCCCC3)c(=O)c21	inconclusive: -9.87%	–
C[C@H](NC(=O)c1nc[nH]c1C(=O)NCCCCCNC(=O)OC(C)(C)C)C(=O)OCc1ccccc1	–	inconclusive: 35.5 µM [falling, single point]
CCC(=O)Nc1ccc(/C=C(\C(C)=O)C(=O)c2ccccc2)cc1	–	inconclusive: 17.8 µM [falling, single point]
O=C(c1cccs1)N1CCC(c2ccccc2)C1 (configuration not stated)	–	inconclusive: 16.4 µM [falling, single point]
CCOc1ccc(-c2cnc(SCC(N)=O)nc2N)cc1	inconclusive: -0.185%	–
O=C(O)c1ccc(-c2ccc(/C=C3\NC(=O)N(Cc4ccc(Cl)cc4)C3=O)o2)cc1	–	inconclusive: 17.8 µM [falling, partial curve]
CNC(=O)c1cc(Oc2ccc(NC(=O)Nc3ccc(Cl)c(C(F)(F)F)c3)cc2)ccn1	inconclusive: 18%	–
CC(C)(C)NC(=O)CSc1nc(O)cc(=O)[nH]1	inconclusive: 5.85%	–
O=C(NC1CCN(C(=O)Nc2cccc(Cl)c2)CC1)C1CCCCC1	inconclusive: 9.46%	–
FC(F)(F)c1nc2ccccc2nc1N/N=C\c1ccccc1	inconclusive: -10.9%	–

(listing goes on)

SMILES	activity change, negative = inhibition	Potency
COc1cc(C=C(C(C)=O)C(C)=O)ccc1O	inconclusive: -11.6%	–
Cc1ccc(N=C2C(=O)Nc3ccccc32)c(C)c1	inactive: -3.41%	–
COc1ccc(N2C(=O)C(C)(C)C2c2c(O)ccc3ccccc23)cc1 (configuration not stated)	inconclusive: 2.42%	–
COc1cccc(-c2cc(-c3cccnc3)nc(N)c2C#N)c1	inconclusive: 5.62%	–
COc1ccc(C(=O)NCc2cccnc2)cc1S(=O)(=O)N1CCOCC1	inconclusive: 1.06%	–
C=CCC[C@@H](Cc1ccc(F)cc1)C(=O)OC[C@@H]1CCCN1C(=O)[C@H](CC=C)CC(=O)N[C@H](CO)Cc1ccccc1	inconclusive: -14.2%	–
CCS(=O)(=O)N1Cc2ccccc2CC1C(=O)Nc1nc(C)cs1 (configuration not stated)	inconclusive: 8.07%	–
Cc1ccc(CNC(=O)Cc2noc3ccccc23)cc1	–	inconclusive: 28.2 µM [falling, partial curve]
CCN1CCCC1CNc1ncnc2c1[nH]c1ccc(Cl)cc12 (configuration not stated)	inconclusive: 0.152%	–
CCN(CC)CCCOC(=O)C1(c2ccccc2)CCCC1	inconclusive: -18.7%	–
COc1ccc(/C=C/C(=O)c2cc(Br)ccc2OC(=O)c2ccco2)cc1OC	–	inconclusive: 2.91 µM [falling, full curve]
COc1cccc(C(=O)Nc2cccc(SC)c2)c1	inconclusive: -18.6%	–
Cc1cc(=O)[nH]c(SCC(=O)Nc2ccc(Cl)cn2)n1	inconclusive: 8.38%	–
COc1ccc(C2=C3C(=O)OCC3Cc3ncn(Cc4ccccc4)c32)cc1 (configuration not stated)	–	inconclusive: 20.6 µM [falling, partial curve, poor fit]
COc1ccc(C(=O)N2CCN(C)C(=O)[C@@H]2C)cc1OC1CCN(C(C)=O)CC1	inactive: -8.65%	–
COc1ccc(C(=O)NC(C)c2cc(OC)c(OC)cc2Br)cc1 (configuration not stated)	inconclusive: 4.96%	–
CCN(CCO)c1nc(NCc2ccccc2)c2cnn(C)c2n1	inactive: -0.208%	–
O=C(CNc1ccccc1)N/N=C/c1c(O)ccc2ccccc12	inactive: 1.23%	–
O=C(OCCCN=C1NS(=O)(=O)c2ccccc21)c1ccc(F)cc1	inconclusive: 12.3%	–
